Measured values reported in patent US20230322935A1 (published 2023).
Where a chain is given by its changes, count along the chain named. Results are given in words; binding and its absence hold for the method and conditions named. Some entries that bind do so weakly or less than the wild type. For some of these results: Tags and fused reporters may be left off the sequences shown.

Amino acid sequences for entries named in this document (tags omitted). A change or cut given only in a name is not applied to a line headed by its entry. Chains listed by the source or under a name are the forms on record and can include a tag or linker. Residues count along the entry.
UniProt Q9NPY3: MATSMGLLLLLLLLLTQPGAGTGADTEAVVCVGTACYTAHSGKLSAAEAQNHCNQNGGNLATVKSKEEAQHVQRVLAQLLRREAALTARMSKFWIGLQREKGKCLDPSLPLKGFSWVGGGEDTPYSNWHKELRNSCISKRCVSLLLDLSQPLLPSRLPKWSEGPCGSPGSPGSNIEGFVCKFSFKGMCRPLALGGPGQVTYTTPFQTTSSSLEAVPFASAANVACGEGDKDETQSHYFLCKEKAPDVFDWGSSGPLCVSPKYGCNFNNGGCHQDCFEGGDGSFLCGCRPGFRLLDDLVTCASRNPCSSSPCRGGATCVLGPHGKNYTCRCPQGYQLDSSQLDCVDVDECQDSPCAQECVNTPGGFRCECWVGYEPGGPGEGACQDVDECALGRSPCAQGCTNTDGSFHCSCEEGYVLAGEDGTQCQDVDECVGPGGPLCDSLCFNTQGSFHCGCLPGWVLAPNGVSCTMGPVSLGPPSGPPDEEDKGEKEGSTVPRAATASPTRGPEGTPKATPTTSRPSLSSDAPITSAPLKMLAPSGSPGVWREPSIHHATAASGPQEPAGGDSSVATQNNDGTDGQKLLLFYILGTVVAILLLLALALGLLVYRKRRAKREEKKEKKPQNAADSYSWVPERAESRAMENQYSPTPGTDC
Human CD93 on the cell surface (human CD93 expressing CHO cells; HUVEC, U937 and KG1a cells): residues 22-652 of Q9NPY3
His-tagged human CD93: residues 22-580 of Q9NPY3

B1: 7F3 (mouse anti-human CD93 hybridoma antibody) (antibody, IgG1, V domains shown)
VH: QVQLQQSGADLVRPGASVKLSCKASGYTFTDYEMHWVKQTPVYGLEWIGGIDPETGDTAYNQNFKGKATLTADKSSSAAYMELRSLTSEDSAVYYCTNYGNLYYYAMDYWGQGTSVTVSS
VL: ENVLTQSPAIMSASPGEKVTMTCRASSSVSSSYLHWYQQKSGASPKLWIYSTSNLAFGVPARFSGSGSGTSYSLTISSVEAEDAATYYCQQYSGYPLTFGSGTKLEIK
B2: 16G9 (mouse anti-human CD93 hybridoma antibody) (antibody, V domains shown)
VH: EVQLQQSGPELVKPGASVKMSCKASGYTFTDYYMNWVKQSHGKSLEWIGRVNPNNGGKTYNQKFKGKATLTVDKSLSTAYMQLNSLTSEDSAVYYCARWRLRPVDYGMDYWGQGTSVTVSS
VL: DIVLTQSPASLAVSLGQRATISCRASQSVSTSSYSYMHWYQQKPGQPPKLLIKYASNLESGVPARFSGSGSGTDFTLNIHPVEEEDTATYYCQHSWEIPFTFGSGTKLEIK
B3: 10B1 (mouse anti-human CD93 hybridoma antibody) (antibody, V domains shown)
VH: QVQLKQSGPGLVQPSQSLSITCTVSDFSLSSFGVNWVRQPPGKGLEWLGVIWSGGSTDYNVAFISRLSISKDNSKSQVFFKMNNLQADDTAIYYCARNWRYDGYFYAMDYWGQGTSVTVSS
VL: DIVMTQSQKFMSTSTGDRVSVTCKASQNVGTNVAWYQQKPGQSPKALIYSASYRFIGVPDRFTGSGSGTDFTLTITNVQSEDLAEYFCQQYNRNPITFGSGTKLEIK
B4: 19B5 (mouse anti-human CD93 hybridoma antibody) (antibody, V domains shown)
VH: DVNLVESGGGLVKLGGSLKLSCAASGFTFSNYYMSWVRQSPEKRLEWVATISNNGDSTYYLDTVKGRFTISRDSAENTLYLQMSSLISEDTAVYYCTRVGTGFTYWGQGTLVTVSA
VL: DIVLTQSPATLSVTPGDSVSLSCRASQSINNYLHWYQQRSHESPRLLIKFASQSISDIPSRFSGSGSGTDFTLSINSIETEDFGMYFCQQSNSWPLTFGAGTKLELK
B5: 12H4 (mouse anti-human CD93 hybridoma antibody) (antibody, V domains shown)
VH: EVQLQQSGPELVKPGASVKVSCKASGYTFTDYYIHWVKQRPGQGLEWIGEIYPGSDDAYYNEKFKGKATLTADKSSSTAYMQLSSLTSEDSAVYFCTRETTATAYWGQGTLVTVSA
VL: QIVLTQSPAIMSASPGEKVTITCSASSSVSLIYWFQQKPGTSPKLWIYSTSNLASGVPARFSGSGSGTSYSLTISRMEAEDAATYYCQQRSGYPPTFGGGTKLEIK
B6: 17B10 (mouse anti-human CD93 hybridoma antibody) (antibody, V domains shown)
VH: QVQLQQSGPELVKPGASVKISCKASGYAFSSYWLNWVKQRPGKGLEWFGRIYPGDGDTDYNGKFKGKATLTADKSSSTAYMQLRSLTSEDSAVYFCVRGDGYWAMDYWGQGTSVTVSS
VL: DIVMTQAAFSNPVTLGTSASISCRFSKSLLHSNGITYLYWYLQKPGQSPQLLIYQMSNLASGVPDRFSSSGSGTDFTLRISRVEAEDVGVYYCAQNLELPWTFGGGTKLEIK
B7: 5H9 (mouse anti-human CD93 hybridoma antibody) (antibody, IgG2a, V domains shown)
VH: QVQLQQSGPDLVKPGASVKISCKASGYAFSTYWMNWVKQRPGKGLEWIGRIFPGDGDANYNGKFKGKATLTADKSSSTAYMQLSSLTSEDSAVYFCTRTGAAYDFDPFPYWGQGTLVTVSA
VL: DIVMTQAAFSNPVTLGTSASISCSSSKSLLHSNGVTYLYWYLQRPGQSPQLLIYRMSNLASGVPDRFSGSGSGTDFTLRISRVEAEDVGIYYCAQMLERPFTFGSGTKLEIK
B8: 17A7 (mouse anti-human CD93 hybridoma antibody) (antibody, V domains shown)
VH: B7 VH with D10E, A24G, A58T, N59D, N61D, S77N, T97A, D104E
VL: B7 VL with S26T, N33S, V35I, I90V
B9: 17E6 (mouse anti-human CD93 hybridoma antibody) (antibody, V domains shown)
VH: EVQLQQSGPELVKPGASVKMSCKASGYTFTSYVIHWVKQKPGQGLEWIGYINPYSDYTQYNEKFKGKATLTSDKSSSTAYMELSSLTSEDSAVYSCARRADGNPYAMDYWGQGTSVTVSS
VL: DIVMTQSHKFMSTSVGDRVSTTCKASQDVSTAVVWYQQKPGQSPKLLIYSASYRYTGVPDRFTGSGSGTDFTFTITSVQAEDLAVYYCQQHYSTPFTFGSGTKLEIK
B10: 20C7 (mouse anti-human CD93 hybridoma antibody) (antibody, V domains shown)
VH: B9 VH with K13N, S31A, I34M, N52F, S55N, Y57G, Q59E, S95Y, A100T, A106T
VL: B9 VL with T21I, V34A, Y49H, S65R, T76S
B11: 16B6 (mouse anti-human CD93 hybridoma antibody) (antibody, V domains shown)
VH: QVQLQQSGPELVKPGASVKISCKASGYAFSRSWMNWVKQRPGKGLEWIGWIYPGDGDTNYNGKFKGKATLTADKSSSTAYMQLSSLTSEDSAAYFCARSATLPYWYFDVWGAGTTVTVSS
VL: DIKMTQSPSSMYASLGERVTITCKASQDIKSYLSWYQQKPWKSPKTLIYYATNLADGVPSRFSGSGSGQDYSLTISSLGSDDTATYYCLQHVESPWTFGGGTKLEIK
B12: 19E12 (mouse anti-human CD93 hybridoma antibody) (antibody, V domains shown)
VH: QVQLQQSGAELVRPGASVKLSCKASGYTFTDYEMHWVRQTPVHGLEWIGGIDPETGGTAYNQKFKGKATLTADKSSSTAYMELRSLTSEDSAVYYCTRGAWFAYWGQGTLVTVSA
VL: QAVVTQESALTTSPGETVTLTCRSSTGAVTTSNSANWVQEKPDHLFTGLIGGTNNRAPGVPARFSGSLIGDKAALTITGAQTEDEAIYFCALWYNNHFVFGGGTKLTVL
B13: Humanized 17B10 (VH3VL3, i.e., H3L3), chimeric Fc with mouse IgG1 CH2 and CH3 domains and human CH1 (antibody, V domains shown)
VH: QVQLVQSGPEVKKPGESLKISCKASGYAFSSYWLNWVRQMPGKGLEWMGRIYPGDGDTDYNGKFKGQVTISADKSSGTAYLQLSSLKASDTAVYFCVRGDGYWAMDYWGQGTLVTVSS
VL: DIVMTQSPDSLAVSLGERATINCRFSKSLLHSNGITYLYWYQQKPGQPPKLLIYQMSNLASGVPDRFSGSGSGTDFTLTISSLQAEDVAVYYCAQNLELPWTFGGGTKLEIK
B14: recombinant parental 17B10-hFc (17B10-hIgG1) (antibody, V domains shown)
VH: B6 VH
VL: B6 VL
B15: h16E4 (humanized 16E4, VH4+VL6) (antibody, V domains shown)
VH: QVQLVQSGAEVKKPGASVKVSCKASGYTFTSYWMHWVRQAPGQGLEWMGEIDPSASYTYYNQKFKGRVTMTRDKSSSTVYMELSSLTSEDSAVYYCARSVYYGNKYFDVWGAGTTVTVSS
VL: DIQMTQSPSTLSASVGDRVTITCKASQSVDYAGDSYMNWYQQKPGKAPKLLIYAASNLESGVPSRFSGSGSGTEFTLTISSLQPDDFATYYCQQTNEDPRTFGGGTKLEIK
B16: h7F3 (humanized 7F3, VH3+VL3) (antibody, V domains shown)
VH: QVQLVQSGAEVKKPGASVKVSCKASGYTFTDYEMHWVRQAPGQGLEWMGGIDPETGDTAYNQNFKGRVTMTTDTSTSTAYMELRSLTSDDTAVYYCTNYGNLYYYAMDYWGQGTSVTVSS
VL: EIVLTQSPSSLSASVGDRVTITCRASSSVSSSYLHWYQQKPGKAPKLLIYSTSNLAFGVPSRFSGSGSGTSYTFTISSLQPEDIATYYCQQYSGYPLTFGSGTKLEIK
B17: 7F3-hIgG1 (recombinant chimeric 7F3) (antibody, V domains shown)
VH: B1 VH
VL: B1 VL

Molecular target: cynomolgus CD93 protein (made in-house) (cynomolgus)
Assay: summary table, Cyno Cross (ELISA)

| binding | Binder |
| --- | --- |
| binds | B1 |
| binds | B2 |
| binds | B3 |
| binds | B4 |
| binds | B5 |
| binds | B6 |
| binds | B7 |
| binds | B8 |
| binds | B9 |
| binds | B10 |
| binds | B11 |
| binds | B12 |

Molecular target: His-tagged human CD93 (human) (UniProt Q9NPY3)
Assay: ELISA, His-tagged human CD93 coated at 1 µg/mL

| binding | Binder |
| --- | --- |
| binds | B13 |
| binds | B6 |
| binds | B14 |

Molecular target: cynomolgus CD93 protein (made in-house) (cynomolgus)
Assay: BLI (Octet), biotinylated CD93 on streptavidin sensors

| binding | Binder |
| --- | --- |
| binds | B1 |
| binds | B3 |

Molecular target: Human CD93 recombinant protein (Sino Biological Inc, Catalog #12589-H08H) (human) (UniProt Q9NPY3)
Assay: BLI (Octet), biotinylated human CD93 on streptavidin sensors

| binding | Binder |
| --- | --- |
| binds | B15 |
| binds | B16 |

Molecular target: cynomolgus CD93 protein (made in-house) (cynomolgus)
Assay: BLI (Octet), biotinylated cynomolgus CD93 on streptavidin sensors

| binding | Binder |
| --- | --- |
| binds | B2 |
| binds | B4 |
| binds | B5 |
| binds | B6 |
| binds | B7 |
| binds | B8 |
| binds | B9 |
| binds | B10 |
| binds | B11 |
| binds | B12 |

Molecular target: His-tagged human CD93 (human) (UniProt Q9NPY3)
Assay: ELISA, His-tagged human CD93 coated at 1 µg/mL, anti-human Fc-HRP

| binding | Binder |
| --- | --- |
| binds | B17 |

Molecular target: His-tagged human CD93 (human) (UniProt Q9NPY3)
Assay: ELISA, His-tagged human CD93 coated at 1 µg/mL, anti-mouse Fc-HRP

| binding | Binder |
| --- | --- |
| binds | B1 |
| binds | B13 |

Molecular target: Human CD93 on the cell surface (human CD93 expressing CHO cells; HUVEC, U937 and KG1a cells) (human) (UniProt Q9NPY3)
Assay: FACS on KG1a cells; antibody fresh or stored at 40 C for 2 or 4 weeks

| binding | Binder |
| --- | --- |
| binds | B15 |
| binds | B16 |

Molecular target: Human CD93 on the cell surface (human CD93 expressing CHO cells; HUVEC, U937 and KG1a cells) (human) (UniProt Q9NPY3)
Assay: FACS on HUVEC cells; antibody fresh or stored at 40 C for 2 or 4 weeks

| binding | Binder |
| --- | --- |
| binds | B16 |

Molecular target: Human CD93 on the cell surface (human CD93 expressing CHO cells; HUVEC, U937 and KG1a cells) (human) (UniProt Q9NPY3)
Assay: FACS on human CD93 expressing CHO cells; antibody fresh or stored at 40 C for 2 or 4 weeks

| binding | Binder |
| --- | --- |
| binds | B15 |
| binds | B16 |
